# From PubChem BioAssay AID504648 (National Center for Advancing Translational Sciences (NCATS), 2011)
# Screen size: about 390,000 compounds; about 610 (0.16%) were called active. The inconclusive results got no clear call from the source; some entries with a clear call stand among them for comparison. Calls come from the whole dose curve; as a rule, active = well fitted inhibition curve with a large enough effect; inconclusive = small, poorly fitted or top-dose-only effect, or effect the other way, or another doubt; inactive = no such curve, though single readings can be large or run the other way. Potencies beside an inconclusive call are fits to weak or partial responses and may not hold up.
# Assay: Nrf2 qHTS screen for inhibitors: counterscreen for cytotoxicity
# Details: A549 ARE-Fluc cells, CellTiter-Fluor viability, 18-24 h; activity change, negative = cytotoxicity: at 46 µM (top of the series)
# In short: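 A549 ARE-Fluc cells in 5% FBS OPTI-MEM, 5000 cells/well, rested 2 h then exposed to compounds in concentration-response for 18-24 h at 37 °C. Viability by CellTiter-Fluor fluorescence (Ex 405/Em 525) after 30 min; luciferase luminescence (BugLite, 15 min, RT) read afterwards.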
# % is set by controls: 0 for no effect and ±100 for the full control effect; potency is the fitted concentration of half-maximal effect.
Structure (SMILES),Potency,"activity change, negative = cytotoxicity"
Cc1ccc(C)c(N2CCN(C(=O)CCS(=O)(=O)c3ccc4c(c3)CCN4C(=O)C3CC3)CC2)c1,inactive,–
CCC(O)CNc1nc(SC)nc2sc3c(c12)CCN(C)C3 (centres undefined),"inconclusive: 13 µM [activator, partial curve, poor fit]",–
Cc1cccc(/N=C/c2sc3ccccc3c2O)n1,inactive,–
O=S(=O)(Nc1ccccc1)c1ccc(Oc2ncc(C(F)(F)F)cc2Cl)cc1,"inconclusive: 32.6 µM [falling, partial curve, poor fit]",–
COc1ccc(S(=O)(=O)Nc2cccc(-c3ccc(N4CCCCCC4)nn3)c2)c(OC)c1,"inconclusive: 20.6 µM [falling, partial curve, poor fit]",–
CC(=O)N1CCN(C(=O)CNc2cc(C(F)(F)F)ccc2OCC(F)(F)F)CC1,inactive,–
O=C(c1ccc(OC2CCN(C/C=C/c3ccccc3)CC2)cc1)N1CCCC1,"inconclusive: 29.1 µM [falling, single point]",–
CCOC(=O)C1=C(CC)Nc2ccccc2N=C1NC(=O)c1cc(C)on1,"inconclusive: 18.4 µM [activator, partial curve, poor fit]",–
COc1cc(OC)c(Nc2c3c(nc4nc(-c5cccs5)nn24)CCCC3)cc1Cl,"inconclusive: 20.6 µM [falling, single point]",–
COc1cccc(C(=O)c2cc3ccc(O)cc3oc2=O)c1,"inconclusive: 6.51 µM [falling, partial curve, poor fit]",–
COc1cccc(/C=C2\SC(=S)N(CCCC(=O)N3CCCCC3)C2=O)c1,"inconclusive: 14.6 µM [falling, partial curve]",–
FC(F)(F)c1cc(-c2cccs2)nc2cc(-c3cccs3)nn12,"inconclusive: 1.64 µM [activator, full curve, poor fit]",–
Cc1cc(NC(=O)Cc2ccccc2)c2ccccc2n1,inactive,–
CC(=O)Nc1nonc1C(=O)N1CCC(C)CC1,"inconclusive: 23.1 µM [activator, partial curve, poor fit]",–
COc1ccc(CCNC(=O)CCCn2nc(C)c3sc4ccccc4c3c2=O)cc1OC,"inconclusive: 32.6 µM [falling, partial curve, poor fit]",–
Cc1ccc(-c2nc(Nc3ccc(O)cc3)c3ccccc3n2)cc1,"inconclusive: 29.1 µM [falling, partial curve, poor fit]",–
O=C(Nc1ccc2nc(SCC(=O)N3CCCC3)sc2c1)c1ccccc1F,inactive,–
COc1ccc(CNC(=O)c2c(Nc3ccccc3C)sc(C(=O)c3ccccc3)c2N)cc1,"inconclusive: 20.6 µM [falling, single point]",–
C#Cc1ccc([C@@H]2C=C(C(=O)N3CCN(Cc4ccc5c(c4)OCO5)CC3)O[C@H](OCC)[C@H]2CCCO)cc1,"inconclusive: 16.4 µM [falling, single point]",–
COCCCn1c(O)c(/C=C2\N=C(C#N)C(=Nc3ccc(C)cc3)O2)sc1=S,"inconclusive: 29.1 µM [falling, single point]",–
O=c1c([N+](=O)[O-])cccn1Cc1ccc(F)cc1Cl,"inconclusive: 14.6 µM [falling, partial curve, poor fit]",–
CCN1C(=O)N[C@@H](c2cccc(F)c2)C(C(=O)OC)=C1C,inactive,–

# Given with tabs: 4 of the compounds above
Structure (SMILES)	Potency	activity change, negative = cytotoxicity
CC(=O)Nc1nonc1C(=O)N1CCC(C)CC1	inconclusive: 23.1 µM [activator, partial curve, poor fit]	–
COc1ccc(CCNC(=O)CCCn2nc(C)c3sc4ccccc4c3c2=O)cc1OC	inconclusive: 32.6 µM [falling, partial curve, poor fit]	–
Cc1ccc(-c2nc(Nc3ccc(O)cc3)c3ccccc3n2)cc1	inconclusive: 29.1 µM [falling, partial curve, poor fit]	–
O=C(Nc1ccc2nc(SCC(=O)N3CCCC3)sc2c1)c1ccccc1F	inactive	–

# Next part:

Structure (SMILES),Potency,"activity change, negative = cytotoxicity"
CN1C(=O)c2cccc3c(N)ccc(c23)C1=O,"inconclusive: 11.6 µM [activator, partial curve, poor fit]",–
Cc1cccc(C(=O)Nc2ccccc2SCC2CSc3nc4ccccc4c(=O)n32)c1 (centres undefined),"inconclusive: 9.2 µM [falling, partial curve]",–
COc1ccc(NC(=O)c2cc(-c3ccccc3O)no2)cc1,"inconclusive: 16.4 µM [falling, partial curve, poor fit]",–
CN(C)C(=O)c1cc(S(=O)(=O)N(C)C)c(Cl)cc1N1CCCC1,–,inactive: -6.5% [at 1.84 µM]
Cn1cc(/C=C2\SC(=O)N(c3ccc(O)cc3)C2=O)c2ccccc21,"inconclusive: 18.4 µM [falling, partial curve, poor fit]",–
O=c1c2ccccc2oc2cc(NCCCn3ccnc3)ccc12,"inconclusive: 23.1 µM [activator, single point]",–
COc1ccc(CCNC(=O)Cn2cc(S(=O)(=O)Cc3cccc(Cl)c3)c3ccccc32)cc1OC,"inconclusive: 18.4 µM [falling, partial curve, poor fit]",–
COc1ccccc1Nc1c2c(nc3ccc(NC(=O)c4cccc(F)c4)cc13)CCCC2,"inconclusive: 20.6 µM [falling, single point]",–
Cc1ccc(NC(=S)NNc2ncc(C(F)(F)F)cc2Cl)cc1,inactive,–
Cc1cc(Cl)n2c(nc3ccccc32)c1C#N,"inconclusive: 7.31 µM [falling, partial curve]",–
O=[N+]([O-])c1ccc(/C=N/N=C/c2ccc([N+](=O)[O-])o2)o1,active: 20.6 µM,–
O=C(Nc1ccc(Cl)c(Cl)c1)Nc1ccccc1C(=O)O,"inconclusive: 32.6 µM [falling, partial curve, poor fit]",–
CCOC(=O)c1c(C)sc2c1N(C(=O)CN(CC)CC)c1cc(Cl)ccc1S2,"inconclusive: 23.1 µM [falling, partial curve, poor fit]",–
COc1cc(OC)c2c(-c3cccc(-c4ccc(CO)cc4)c3)cc(=O)oc2c1,"inconclusive: 20.6 µM [falling, single point]",–
CN1/C(=C\C=[N+](C)c2ccccc2)C(C)(C)c2ccccc21,active: 9.2 µM,–
CC(C)(C)N(Cc1ccccc1)C(=O)CSc1ncn[nH]1,inactive,–
CC1(C)CC(=O)C(C=Nc2ccc(O)c(N=CC3=C(O)CC(C)(C)CC3=O)c2)=C(O)C1,"inconclusive: 29.1 µM [falling, single point]",–
Cc1[nH]c2ccc(C(=O)OC(C)C(=O)N(C)C3CCCCC3)cc2c1C (centres undefined),"inconclusive: 20.6 µM [falling, partial curve, poor fit]",–
CCOC(=O)N1CCN(c2ccncc2S(=O)(=O)N2CCCCC2)CC1,inactive,–
Cc1ccc(S(=O)(=O)c2nc(Nc3ccccc3C#N)sc2Cl)cc1,inactive,–
COc1ccc(C2Nc3ccccc3C(=O)N2Cc2ccccc2)cc1COc1ccccn1 (centres undefined),inactive,–
Cc1ccc(C)c(N2CCN(C(=O)c3ccc4[nH]c(C)c(C)c4c3)CC2)c1,"inconclusive: 20.6 µM [falling, single point]",–

Structure (SMILES),Potency,"activity change, negative = cytotoxicity"
CCOC(=O)c1cnc2c(OC)cccc2c1Nc1ccc2c(c1)OCCO2,"inconclusive: 23.1 µM [falling, partial curve, poor fit]",–
O=C(CSC1CCCCC1)Nc1ccccc1Br,"inconclusive: 2.06 µM [activator, full curve, poor fit]",–
O=C(CN1C2CCCC1CC(NC(=O)C1CCCCC1)C2)Nc1ccccc1C(F)(F)F (centres undefined),inactive,–
COCc1nnc(NC(=O)c2ccc(S(=O)(=O)N(C)Cc3ccccc3)cc2)o1,"inconclusive: 32.6 µM [falling, partial curve, poor fit]",–
CCN1CCN(c2ccc(S(=O)(=O)N3CCCCC3)cc2NC(=O)/C=C/c2ccc(OC(F)F)cc2)CC1,"inconclusive: 16.4 µM [falling, partial curve, poor fit]",–
O=[N+]([O-])c1c(NCCCO)cc(N2CCN(Cc3ccc4c(c3)OCO4)CC2)c2nonc12,"inconclusive: 32.6 µM [falling, partial curve, poor fit]",–
O=c1c2ccccc2c(/C=N/n2cnnc2)c(O)n1-c1ccccc1F,"inconclusive: 18.4 µM [activator, single point]",–
COc1cc(OC)c2c(-c3ccccc3)cc(=O)oc2c1C(CC(=O)N1CCCC1)c1ccc2c(c1)OCO2 (centres undefined),"inconclusive: 29.1 µM [falling, single point]",–
COc1ccccc1N1CCN(C(=O)c2ccc(Nc3nc4ccccc4n4nnnc34)cc2)CC1,inactive,–
CCn1c(=O)n(CC)c2cc(N3CCCC3)c(NC(=O)Nc3cc(C)cc(C)c3)cc21,"inconclusive: 18.4 µM [falling, single point]",–
Cn1c2c(c(=O)n(C)c1=O)C(C(F)(F)F)(C(F)(F)F)N=C(CCC1CCCCC1)N2,"inconclusive: 18.4 µM [falling, partial curve, poor fit]",–
CCOC(=O)C1C(=O)C=C(c2ccc(NS(C)(=O)=O)cc2)CC1c1ccco1 (centres undefined),"inconclusive: 14.6 µM [activator, partial curve]",–
N#Cc1cccc(NC(=O)C2CCN(c3nc(-c4ccc(Cl)cc4)no3)CC2)c1,"inconclusive: 20.6 µM [falling, partial curve, poor fit]",–
CC(Nc1nc(N2CCCCC2)nc2ccccc12)c1ccccc1 (centres undefined),"inconclusive: 25.9 µM [falling, single point]",–
O=C(Nc1cccc(C(F)(F)F)c1)Nc1ccc2snnc2c1,"inconclusive: 29.1 µM [falling, single point]",–
Cc1ccc(NC(=S)NCCCN2CCOCC2)cc1C,"inconclusive: 2.91 µM [activator, full curve]",–
COc1cc(NS(=O)(=O)c2cc(Br)cc3c2N(C(=O)C2CC2)CC3)cc(OC)c1,"inconclusive: 14.6 µM [falling, single point]",–
C/C(=N\NC(=O)c1ccc(NS(=O)(=O)c2cccs2)cc1)c1ccccn1,inactive,–
CC/C(=N\NC(=S)Nc1cc(C)ccc1C)c1ccc(OC(F)F)cc1,inactive,–
Cc1cc(NC(=O)CCC(=O)N(Cc2ccco2)C2(C(=O)NC3CCCCC3)CCCC(C)C2)no1 (centres undefined),"inconclusive: 29.1 µM [falling, single point]",–
